The target of this test is T1, Ldm1-GFP (Lipid Droplet Motility 1 / Yer085c, C-terminally GFP-tagged, TEF2 promoter) (S. cerevisiae) (UniProt P40058).
T1 sequence: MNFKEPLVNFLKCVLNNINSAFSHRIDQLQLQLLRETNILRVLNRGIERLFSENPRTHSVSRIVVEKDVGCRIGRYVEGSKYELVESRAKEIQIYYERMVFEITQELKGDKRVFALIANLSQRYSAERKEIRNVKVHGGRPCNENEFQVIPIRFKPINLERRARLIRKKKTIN
The experiment in a line: co-IP.

No constants are given. Whether binding was seen depends on the method and setting. In cells and extracts the contact can be indirect. Binding can be weak; no strength is given. Tags and fused reporters may be left off the sequences shown.

As to “Pln1 (structural LD protein) (S. cerevisiae (endogenous in yeast))”, the binding entry is recorded as “binds weakly”.

The record behind these values is publication doi:10.1101/2025.02.21.639583.
